The entries are a selection whose mix differs from that of the whole data set. Records with an inconclusive call do not appear. A call without a number means that no potency is given here. Activity calls are given as the source filed them. Calls follow the shape of the full dose curve; tested in HEK293 cells.
Potency is read from the fitted curve at half-maximal effect.

The assay in a line: qHTS for Inhibitors of binding or entry into cells for Lassa Virus. The following applies: Lassa virus pseudotyped entry inhibition, cell-based qHTS; series mostly up to 49.2 µM. Background: In qHTS, concentration-response curves come from the screen itself.
With `O=C1NC(=O)C(c2cccc([N+](=O)[O-])c2)=C1Nc1cc(Cl)c(O)c(Cl)c1`, the Potency result is “inactive”.
To `O=C1NC(=O)c2c1c(-c1ccccc1)cc1[nH]c3ccc(O)cc3c21` belongs active: 3.16 µM.
With `O=C(O)c1ccc(Oc2nccc(-c3c(-c4ccc(F)cc4)ncn3C3CCNCC3)n2)cc1` the entry was “inactive”.
